# Percent effect of library compounds

Source: ChEMBL document CHEMBL3988442, “University of Dundee, Small-Polar-MMV Screening Library” (2021).

Values are the deposited “Percent Effect”, in %.
How 0% and 100% were set is not recorded. Most values in the screen are low, and negative values occur.
Compounds were drawn at random from those tested, without regard to their results.
Two or more numbers in one place are separate tests of the same structure; such repeats can differ widely.

Mtb glucose medium: 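Growth of Mycobacterium tuberculosis over 3 days (7H9 medium with glucose and tyloxapol); the read-out is not stated. Concentration: 50 µM. Higher reads as more growth inhibition (inferred: compounds with an IC50 in retests scored well above the rest). About 69,000 compounds were tested under these conditions; 1.1% (about 760) showed 50% or more at least once.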
Mtb cholesterol medium: 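Whole-cell growth test on Mycobacterium tuberculosis, read after 4 days in a medium based on cholesterol and the lipid DPPC; the read-out is not stated. Tested at 50 µM. Direction is inferred from retests: higher values go with more growth inhibition. About 69,000 compounds were tested under these conditions; 0.54% (about 370) showed 50% or more at least once.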

SMILES,Mtb glucose medium,Mtb cholesterol medium
FC(F)(F)c1ccnc(N2CCCN(Cc3ccccn3)CC2)n1,-1.543%,6.23%
O=C(c1cccnc1N1CCOC(c2ccc(F)cc2)C1)N1CCCC1 (configuration not stated),-14.69%,-7.49%
Cc1cc(C)n(CC2CN(Cc3nc(-c4ccoc4)no3)CCO2)n1 (configuration not stated),22.86%,-5.42%
[H][C@@]12CCN(Cc3nccs3)C[C@]1(c1nnc(C)o1)CCO2,-3.239%,-14.56%
CCCS(=O)(=O)N1Cc2c(ncn2Cc2ccccc2)C[C@H]1C(=O)OC,-1.632% & 1.918%,-11.29%
CCc1n[nH]c(NC(=O)c2ccc(Cl)cn2)c1Br,16.89%,13.71%
COc1ccccc1CN1CCC(c2nccc(C)n2)C1 (configuration not stated),19.74%,-3.926% & -15.46%
COc1cccc(-c2noc(-c3ccc(N4CC(N)C4)nc3)n2)c1OC,11.07%,11.72% & 7.625%
O=C(O)C(F)(F)F.O=C(O)C(F)(F)F.[H][C@@]12CN(C(=O)N(C)C)C[C@]1([H])OCCN2CCN(C)C,-15.76% & -9.958%,-19.1%
COCCC(=O)N1CCCC(CCC(=O)Nc2ccc(Cl)cc2)C1 (configuration not stated),13.96%,-10.92%
CC(C)c1cnc(CN2CCCC(c3ccn[nH]3)C2)o1 (configuration not stated),6.766%,3.226% & -5.865%
Cc1cc(C2CCC2)nc(NCC(C)(C)CO)n1,13.39%,-11.06%
Nc1nccnc1C(=O)N(Cc1ccco1)CC1CCCO1 (configuration not stated),0.7972% & -22.05%,6.367%
COc1cc(CNC(=O)Nc2cc(C(F)(F)F)c[nH]c2=O)ccn1,-19.39%,18.22%
Cc1cc(CC(=O)NCC(O)COc2ccc(F)c(F)c2)no1 (configuration not stated),-6.936% & 1.753%,5.422%
CNC(=O)c1cn2cc(-c3cccc(Cl)c3)n(CC=C(C)C)c(=O)c2n1,6.253% & 7.037%,0.6872%
O=S(=O)(CCCN1CCCC1Cn1cncn1)c1ccccc1 (configuration not stated),2.641%,-10.11%
O=C(NCC(=O)N1CCCC1)c1nc(Cc2c(Cl)cccc2Cl)no1,-1.945% & -9.115%,-15.81%
CCCS(=O)(=O)NC1CCc2c(ccc(=O)n2CC2CC2)C1 (configuration not stated),-10.25%,-22.6% & -18.7%
Cn1ncc2c1NC(=O)CC2c1ccccc1Br (configuration not stated),28.04%,-3.321%
Cc1c2c(C(F)F)cc(SCC(=O)O)nc2nn1C,10.98%,5.279%
Cn1cc(C2CC(=O)NC23CCN(Cc2cccc(F)c2)CC3)cn1.O=C(O)C(F)(F)F (configuration not stated),-14.67%,-35.52%
Cc1nc(CN2CC(Cc3ccccc3)CC2=O)no1 (configuration not stated),8.377%,16.31%
Cc1ccc(C2(O)CCN(C(=O)CCn3c(C)cccc3=O)CC2)nc1,6.442%,-5.189%
NC(=O)CCC1CCCN(c2ccc3ccc(F)cc3n2)C1 (configuration not stated),5.19%,1.448%
NC(=O)N1CCCN(C(=O)Nc2cc(-n3cccc3)ccc2F)CC1,-15.03%,5.025%
c1[nH]c(CC2CCCC2)nc1CN1CCCC2(CCOC2)C1 (configuration not stated),-2.202%,13.26%
CCOCc1ccccc1NC(=O)NC1CCN(c2ncccn2)CC1,10.98%,15.05%
Cc1cccc(CN2C(=O)OCC2CO)c1F (configuration not stated),-8.413%,-24.6%
O=S(=O)(NCC1(O)CCOc2ccccc21)c1ccccc1F (configuration not stated),-12.01%,-15.54%
Cc1cc(C(=O)NCc2ccccn2)no1,16.68%,14.88%
CCOCc1ccccc1NC(=O)NC1CCN(c2ccccc2)C1 (configuration not stated),49.53%,33%
CCN1CCc2c(cccc2NC(=O)N(C)C2CCSC2)C1 (configuration not stated),0.9111%,-4.813%
COCCC(=O)N1CCN(CC2CC2)c2ncccc2C1,-12%,-43.93% & -0.4153%
Cc1ccc(N(CC(=O)NCc2nnc3n2CCC3)S(C)(=O)=O)cc1,1.62%,8.95%
COCC(=O)N1CCn2c(COc3cccnc3)cnc2C1C.O=C(O)C(F)(F)F (configuration not stated),13.06%,2.054%
CNS(=O)(=O)c1c(C)sc2ccccc12,9.238%,4.163%
Cc1ncsc1CCC(=O)N1CCCC[C@H](N(C)C)C1,0.6418%,-8.658%
Cc1cccc(C(C)(C)CNC(=O)CN(C)c2cnccn2)c1,2.806% & -16.11%,5.883%
O=C(O)C(F)(F)F.O=C(O)C(F)(F)F.O=C(O)C(F)(F)F.[H][C@@]12CCCO[C@]1([H])[C@H](N(C)Cc1ccco1)CN(Cc1ccccn1)C2,14.13%,0.7499%
CC(=O)N1C[C@H](NC(=O)c2csc(C(C)C)c2)[C@@H](C(C)C)C1,1.914% & 14.99%,11.53%
Cc1cc(C)cc(NC(=O)CN2CCCC(n3cncn3)C2)c1 (configuration not stated),2.357%,-3.695%
COc1cc(NCc2ccncc2)c(-c2nn[nH]n2)cc1OC,-11.37%,-12.24%
Cc1noc(C)c1-c1cccc(C2CCN(S(=O)(=O)N(C)C)CC2)n1,-6.361%,10.33% & -1.044%
CNc1ccc(C2CN(c3cc(C)ncn3)CCO2)nc1 (configuration not stated),-16.85%,-6.916% & -17.5%
CN(C)C1CCN(Cc2cnc(S(C)(=O)=O)n2CC2CCCCC2)C1 (configuration not stated),-17.45%,-12.26%
CN1CCN(c2ncccn2)CC(C(=O)N(C)C)C1 (configuration not stated),10.47%,-0.6665%
N#Cc1ccccc1NC(=O)C1CN(C(=O)c2ccc3c(c2)OCO3)C1,-9.028%,-1.335%

For reference, 5 entries once more:

For COc1ccccc1CN1CCC(c2nccc(C)n2)C1 (configuration not stated) the result was Mtb glucose medium: 19.74%; Mtb cholesterol medium: -3.926% & -15.46%.
For CCOCc1ccccc1NC(=O)NC1CCN(c2ncccn2)CC1 the result was Mtb glucose medium: 10.98%; Mtb cholesterol medium: 15.05%.
For CN(C)C1CCN(Cc2cnc(S(C)(=O)=O)n2CC2CCCCC2)C1 (configuration not stated) the result was Mtb glucose medium: -17.45%; Mtb cholesterol medium: -12.26%.
For CC(C)c1cnc(CN2CCCC(c3ccn[nH]3)C2)o1 (configuration not stated) the result was Mtb glucose medium: 6.766%; Mtb cholesterol medium: 3.226% & -5.865%.
For O=C(O)C(F)(F)F.O=C(O)C(F)(F)F.[H][C@@]12CN(C(=O)N(C)C)C[C@]1([H])OCCN2CCN(C)C the result was Mtb glucose medium: -15.76% & -9.958%; Mtb cholesterol medium: -19.1%.